{"source": "patent US20080300221A1", "about": "“Contact Lens Care Composition” (priority 2005, published 2008)", "origin": "cited, not measured here", "test_system": "trophozoites and cysts of three strains of Acanthamoeba", "settings": "cited from earlier work", "note": "At least one compound was matched to its structure with a doubt left."}
{"smiles": "CCCCCCCCCCCCCCCCOP(=O)([O-])OCC[N+](C)(C)C", "note": "[Miltefosine, 1-hexadecylphosphorylcholine]", "values": [{"measurement": "Amoebicidal activity against trophozoites and cysts", "setting": "three strains of Acanthamoeba of different pathogenicity", "result": "high amoebicidal activity"}, {"measurement": "Time to complete lysis of the cells", "setting": "treatment with miltefosine, vacuolization, rounding up, blebbing, then lysis", "result": "less than 30 minutes"}]}
